The target of the assay is T1, hepatocyte nuclear factor-4α (HNF4α) (mouse (endogenous in BALB/c lung tissue)) (UniProt P49698).
T1 sequence: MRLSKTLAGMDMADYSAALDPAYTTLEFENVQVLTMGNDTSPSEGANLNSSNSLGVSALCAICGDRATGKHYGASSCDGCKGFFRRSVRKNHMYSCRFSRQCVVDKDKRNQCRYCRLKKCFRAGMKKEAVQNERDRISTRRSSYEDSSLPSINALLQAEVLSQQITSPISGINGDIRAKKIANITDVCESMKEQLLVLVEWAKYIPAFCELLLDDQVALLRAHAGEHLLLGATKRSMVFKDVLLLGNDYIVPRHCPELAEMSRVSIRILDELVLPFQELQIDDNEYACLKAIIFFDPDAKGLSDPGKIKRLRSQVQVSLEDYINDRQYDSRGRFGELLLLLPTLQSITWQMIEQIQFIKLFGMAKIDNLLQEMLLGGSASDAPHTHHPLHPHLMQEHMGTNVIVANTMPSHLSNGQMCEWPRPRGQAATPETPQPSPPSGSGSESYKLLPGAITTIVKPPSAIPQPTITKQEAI
Description: co-IP; 250 µg nuclear protein from lung tissue of IUGR mice (OVA or PBS induction) incubated overnight at 4°C with 2 µg mouse anti-HNF4α antibody (normal mouse IgG as control), Protein G agarose beads, five washes with 0.1% NP40/PBS; immunoblot with rabbit anti-PGC1α antibody. Background: Immunoblotting shows a protein as a band on a membrane.

Results are given in words; binding and its absence hold for the method and conditions named. Binding seen in cells or lysates may run through a third protein. Some results given as binding are weak or reduced against the parent protein; the word gives no strength.

B1: peroxisome proliferator activated receptor γ coactivator-1α (PGC1α) (protein, UniProt O70343 1-797)
chain: MAWDMCSQDSVWSDIECAALVGEDQPLCPDLPELDLSELDVNDLDTDSFLGGLKWCSDQSEIISNQYNNEPANIFEKIDEENEANLLAVLTETLDSLPVDEDGLPSFDALTDGAVTTDNEASPSSMPDGTPPPQEAEEPSLLKKLLLAPANTQLSYNECSGLSTQNHAANHTHRIRTNPAIVKTENSWSNKAKSICQQQKPQRRPCSELLKYLTTNDDPPHTKPTENRNSSRDKCASKKKSHTQPQSQHAQAKPTTLSLPLTPESPNDPKGSPFENKTIERTLSVELSGTAGLTPPTTPPHKANQDNPFKASPKLKPSCKTVVPPPTKRARYSECSGTQGSHSTKKGPEQSELYAQLSKSSGLSRGHEERKTKRPSLRLFGDHDYCQSLNSKTDILINISQELQDSRQLDFKDASCDWQGHICSSTDSGQCYLRETLEASKQVSPCSTRKQLQDQEIRAELNKHFGHPCQAVFDDKSDKTSELRDGDFSNEQFSKLPVFINSGLAMDGLFDDSEDESDKLSYPWDGTQPYSLFDVSPSCSSFNSPCRDSVSPPKSLFSQRPQRMRSRSRSFSRHRSCSRSPYSRSRSRSPGSRSSSRSCYYYESSHYRHRTHRNSPLYVRSRSRSPYSRRPRYDSYEAYEHERLKRDEYRKEHEKRESERAKQRERQKQKAIEERRVIYVGKIRPDTTRTELRDRFEVFGEIEECTVNLRDDGDSYGFITYRYTCDAFAALENGYTLRRSNETDFELYFCGRKQFFKSNYADLDTNSDDFDPASTKSKYDSLDFDSLLKEAQRSLRR
For the molecule B1, the binding entry is given as “binds”.

For the origin of these results see publication PMC7197710.
